Earlier results as cited in US20040127489A1, “Novel antipsychotic combination therapies and compositions useful therein” (priority 2002, published 2004).
For at least one compound, name, drawing or mass did not settle the structure.

Tested on: Wistar rats
Conditions: rat; Wadenberg et al., 2001; cited from earlier work

For `Cc1cc2c(s1)Nc1ccccc1N=C2N1CCN(C)CC1` [olanzapine], the “dose required for effective suppression of CAR, i.e. 80-100%” value is given as “about 5 mg/kg”.
